PubChem BioAssay AID1259424 – University of Nebraska Medical Center | 2018

Screen: 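Find knockdowns that reproduce the expression shifts seen after KSR1 loss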 (primary screen)
System: human HCT116 colon cancer cells
Reagent: siRNA pool against human genes, 50 nM
Measured: 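Six signature mRNAs by branched-DNA multiplex assay, scaled to two housekeeping genes and non-targeting median, log2; matched to mean KSR1 knockdown profile by Pearson correlation and euclidean distance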
Direction: mean correlation with KSR1 profile: higher = expression change more like KSR1 knockdown; mean distance from KSR1 profile: higher = expression change less like KSR1 knockdown
In all, the deposit lists about 14,000 reagents; shown is a random part of them. 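Higher correlation or smaller distance means closer resemblance to KSR1 loss; control wells, including KSR1 knockdowns, recur on many plates.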 The numbers tell different reagents against one gene apart. Not all columns of the deposit are shown. Not stated in the record: the time to read-out.

Against TSPAN9 #1 the deposit lists mean correlation with KSR1 profile -0.363; mean distance from KSR1 profile 2.36. TSPAN9 #2 scored mean correlation with KSR1 profile 0.278; mean distance from KSR1 profile 1.75. With knock-down of PDLIM7 the results were mean correlation with KSR1 profile 0.245; mean distance from KSR1 profile 1.39. After knock-down of CPSF6 the results were mean correlation with KSR1 profile -0.53; mean distance from KSR1 profile 4.11. Silencing of SGSM3 resulted in: mean correlation with KSR1 profile 0.448; mean distance from KSR1 profile 0.856. For TSSK6, the values are mean correlation with KSR1 profile 0.207; mean distance from KSR1 profile 2.

With knock-down of TMEM8B, the screen gave mean correlation with KSR1 profile -0.0406; mean distance from KSR1 profile 3.73. After knock-down of NECTIN3 the results were mean correlation with KSR1 profile 0.353; mean distance from KSR1 profile 0.965. Depletion of ZMAT3 gave: mean correlation with KSR1 profile -0.013; mean distance from KSR1 profile 1.71. For BAD, the entry reads mean correlation with KSR1 profile 0.827; mean distance from KSR1 profile 1.84.

Quoted from the listing for reference:
SGSM3 → mean correlation with KSR1 profile = 0.448; mean distance from KSR1 profile = 0.856
TSSK6 → mean correlation with KSR1 profile = 0.207; mean distance from KSR1 profile = 2

Additional results:
MYOG showed mean correlation with KSR1 profile 0.435; mean distance from KSR1 profile 1.44. With knock-down of MYO1A, the screen gave mean correlation with KSR1 profile -0.223; mean distance from KSR1 profile 2. Against PLA2G2D, the values are mean correlation with KSR1 profile 0.552; mean distance from KSR1 profile 1.57. Against POU4F1, the entry reads mean correlation with KSR1 profile -0.0563; mean distance from KSR1 profile 2.03. After knock-down of ETNK2, the screen gave mean correlation with KSR1 profile -0.19; mean distance from KSR1 profile 2.61. Against USP9Y, the values are mean correlation with KSR1 profile 0.0797; mean distance from KSR1 profile 1.34.

With knock-down of PARD6G the results were mean correlation with KSR1 profile 0.749; mean distance from KSR1 profile 2.99. Knock-down of COG3 resulted in: mean correlation with KSR1 profile 0.483; mean distance from KSR1 profile 2.35. VRK1 showed mean correlation with KSR1 profile 0.721; mean distance from KSR1 profile 2.18. ADAMTS4 showed mean correlation with KSR1 profile 0.504; mean distance from KSR1 profile 1.24. RNF141 gave mean correlation with KSR1 profile -0.479; mean distance from KSR1 profile 2.4. With knock-down of SETMAR, the record shows mean correlation with KSR1 profile -0.38; mean distance from KSR1 profile 2.19.

Silencing of RB1CC1 came out at: mean correlation with KSR1 profile -0.433; mean distance from KSR1 profile 1.92. Against SSX3, the entry reads mean correlation with KSR1 profile 0.0418; mean distance from KSR1 profile 2. Against ARIH2, the values are mean correlation with KSR1 profile -0.0493; mean distance from KSR1 profile 1.1. After knock-down of COG8 the results were mean correlation with KSR1 profile 0.808; mean distance from KSR1 profile 1.94. For EPN1 the deposit lists mean correlation with KSR1 profile 0.299; mean distance from KSR1 profile 1.11. CAMK1G gave mean correlation with KSR1 profile -0.323; mean distance from KSR1 profile 2.2.
